These are yes or no findings as the source states them, for the method shown. Binding seen in cells or lysates may run through a third protein. Some binding calls cover weakened binding; strength is not graded here. For part of these data: Tags and fused reporters may be left off the sequences shown. Each block holds one molecule with its values, some of them ahead of it.
Legend:
[1] = biological target: T1, 5 × Myc-6 × His tagged CHRONO, transiently expressed from pcDNA3.1 (+) (human) (UniProt Q8N365); test: co-IP; HEK293T cotransfected with 5m6h-CHRONO and Flag-HA transporter (pcDNA3.1 (+)); whole cell lysate precipitated with anti-Myc antibody and Protein G magnetic beads, 4 °C overnight; blot with anti-Flag
T1 sequence: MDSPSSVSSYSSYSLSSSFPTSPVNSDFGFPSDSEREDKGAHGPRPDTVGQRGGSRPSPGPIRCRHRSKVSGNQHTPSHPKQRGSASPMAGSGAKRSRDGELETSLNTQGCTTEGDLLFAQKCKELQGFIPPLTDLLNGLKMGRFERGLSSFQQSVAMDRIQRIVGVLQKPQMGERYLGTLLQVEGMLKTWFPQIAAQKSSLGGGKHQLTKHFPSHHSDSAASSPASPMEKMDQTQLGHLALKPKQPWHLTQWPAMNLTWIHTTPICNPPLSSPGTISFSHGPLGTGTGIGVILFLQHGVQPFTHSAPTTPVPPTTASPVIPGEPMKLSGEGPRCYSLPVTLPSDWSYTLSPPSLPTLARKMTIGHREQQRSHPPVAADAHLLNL

The chains behind the UniProt entries cited, without tags or fusion partners.
UniProt O00327: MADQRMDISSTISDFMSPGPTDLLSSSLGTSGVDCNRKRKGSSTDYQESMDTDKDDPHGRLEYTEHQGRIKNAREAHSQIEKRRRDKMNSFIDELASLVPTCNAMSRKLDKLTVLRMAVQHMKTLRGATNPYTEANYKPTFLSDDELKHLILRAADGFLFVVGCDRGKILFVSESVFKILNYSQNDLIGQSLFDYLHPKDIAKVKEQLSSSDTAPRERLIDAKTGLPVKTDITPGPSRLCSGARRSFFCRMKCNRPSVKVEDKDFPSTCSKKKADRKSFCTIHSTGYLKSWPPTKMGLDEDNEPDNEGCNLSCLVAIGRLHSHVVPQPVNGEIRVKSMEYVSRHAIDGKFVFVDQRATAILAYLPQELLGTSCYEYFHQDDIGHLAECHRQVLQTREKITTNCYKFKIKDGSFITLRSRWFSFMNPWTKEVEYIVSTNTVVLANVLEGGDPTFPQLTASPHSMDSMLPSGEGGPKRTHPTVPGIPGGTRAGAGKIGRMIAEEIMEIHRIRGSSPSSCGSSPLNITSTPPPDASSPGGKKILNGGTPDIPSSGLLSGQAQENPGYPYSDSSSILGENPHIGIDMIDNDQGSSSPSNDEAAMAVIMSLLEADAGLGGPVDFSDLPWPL
UniProt O15131: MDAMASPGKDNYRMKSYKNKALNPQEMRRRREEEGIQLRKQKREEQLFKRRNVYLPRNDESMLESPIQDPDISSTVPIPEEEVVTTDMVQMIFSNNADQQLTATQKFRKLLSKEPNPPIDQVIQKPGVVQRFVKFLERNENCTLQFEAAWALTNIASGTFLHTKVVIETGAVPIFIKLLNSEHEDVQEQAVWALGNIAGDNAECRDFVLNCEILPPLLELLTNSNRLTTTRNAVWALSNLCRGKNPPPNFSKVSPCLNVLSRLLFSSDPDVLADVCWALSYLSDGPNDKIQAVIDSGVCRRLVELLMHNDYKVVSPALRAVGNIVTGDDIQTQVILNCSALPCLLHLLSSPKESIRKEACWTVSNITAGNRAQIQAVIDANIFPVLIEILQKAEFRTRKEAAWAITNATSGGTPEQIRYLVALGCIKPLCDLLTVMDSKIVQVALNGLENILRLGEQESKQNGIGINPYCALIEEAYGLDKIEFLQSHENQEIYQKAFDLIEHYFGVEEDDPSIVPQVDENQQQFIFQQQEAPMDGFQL
UniProt P55060: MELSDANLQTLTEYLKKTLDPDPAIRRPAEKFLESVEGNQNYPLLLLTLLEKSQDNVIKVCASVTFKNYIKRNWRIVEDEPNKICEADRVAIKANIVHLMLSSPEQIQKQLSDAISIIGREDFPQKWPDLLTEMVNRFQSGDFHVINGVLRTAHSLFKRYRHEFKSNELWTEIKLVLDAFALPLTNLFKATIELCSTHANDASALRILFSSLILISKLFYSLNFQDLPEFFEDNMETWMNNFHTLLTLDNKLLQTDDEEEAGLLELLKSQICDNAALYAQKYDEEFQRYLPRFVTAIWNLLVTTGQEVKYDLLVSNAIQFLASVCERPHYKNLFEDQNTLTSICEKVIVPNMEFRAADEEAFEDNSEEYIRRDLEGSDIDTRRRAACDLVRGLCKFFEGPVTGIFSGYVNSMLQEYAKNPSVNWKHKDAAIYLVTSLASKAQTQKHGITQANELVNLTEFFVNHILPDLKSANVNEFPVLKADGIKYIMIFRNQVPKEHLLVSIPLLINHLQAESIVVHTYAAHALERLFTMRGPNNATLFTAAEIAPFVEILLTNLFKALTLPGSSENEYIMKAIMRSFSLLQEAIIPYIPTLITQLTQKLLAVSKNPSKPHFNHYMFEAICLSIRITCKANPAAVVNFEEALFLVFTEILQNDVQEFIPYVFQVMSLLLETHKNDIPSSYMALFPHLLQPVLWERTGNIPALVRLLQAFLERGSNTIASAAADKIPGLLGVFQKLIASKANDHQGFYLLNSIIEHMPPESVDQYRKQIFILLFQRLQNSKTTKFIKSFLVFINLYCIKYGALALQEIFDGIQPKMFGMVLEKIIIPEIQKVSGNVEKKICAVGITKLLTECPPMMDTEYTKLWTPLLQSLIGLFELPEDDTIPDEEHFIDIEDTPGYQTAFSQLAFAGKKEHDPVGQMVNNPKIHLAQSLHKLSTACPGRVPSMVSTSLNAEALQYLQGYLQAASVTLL
UniProt Q92973: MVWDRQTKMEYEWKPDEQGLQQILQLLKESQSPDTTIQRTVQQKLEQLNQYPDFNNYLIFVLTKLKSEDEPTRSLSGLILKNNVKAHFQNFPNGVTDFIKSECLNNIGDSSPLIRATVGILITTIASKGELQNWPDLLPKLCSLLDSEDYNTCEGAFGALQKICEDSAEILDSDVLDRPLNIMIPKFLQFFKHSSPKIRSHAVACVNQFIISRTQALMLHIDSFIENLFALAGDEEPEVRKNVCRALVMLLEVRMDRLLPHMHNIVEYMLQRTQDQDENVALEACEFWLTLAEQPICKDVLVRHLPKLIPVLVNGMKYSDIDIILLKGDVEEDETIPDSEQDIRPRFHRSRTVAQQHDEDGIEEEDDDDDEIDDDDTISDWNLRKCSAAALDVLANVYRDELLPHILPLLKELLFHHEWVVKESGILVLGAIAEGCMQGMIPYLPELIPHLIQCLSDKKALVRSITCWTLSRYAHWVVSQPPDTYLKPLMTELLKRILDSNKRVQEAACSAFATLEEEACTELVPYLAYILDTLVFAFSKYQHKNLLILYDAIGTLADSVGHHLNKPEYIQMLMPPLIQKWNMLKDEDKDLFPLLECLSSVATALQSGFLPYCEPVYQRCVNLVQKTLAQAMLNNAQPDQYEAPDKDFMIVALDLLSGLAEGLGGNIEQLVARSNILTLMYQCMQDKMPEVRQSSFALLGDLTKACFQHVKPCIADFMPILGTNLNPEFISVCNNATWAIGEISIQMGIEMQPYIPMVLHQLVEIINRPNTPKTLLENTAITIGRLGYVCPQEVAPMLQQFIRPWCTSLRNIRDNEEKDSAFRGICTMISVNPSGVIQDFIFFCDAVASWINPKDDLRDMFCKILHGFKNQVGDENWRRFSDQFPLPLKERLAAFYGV

[2] = biological target: T1, 5 × Myc-6 × His tagged CHRONO, transiently expressed from pcDNA3.1 (+) (human); test: co-IP; Flag labeled BMAL1 and Myc labeled CHRONO, each precipitated in turn with antibodies (reciprocal); cells not given
Flag labeled BMAL1 = Flag labeled BMAL1 (UniProt O00327); test: as above
Flag-HA tagged KPNA5 = Flag-HA tagged KPNA5 (UniProt O15131); test: co-IP; reciprocal: Flag-tagged transporter precipitated with anti-Flag antibody, Myc-labeled CHRONO detected by blot (Fig. S4)
Flag-HA tagged CSE1L = Flag-HA tagged CSE1L (UniProt P55060); test: as above
Flag-HA tagged KPNB2 = Flag-HA tagged KPNB2 (UniProt Q92973); test: as above
[3] = biological target: endogenous CSE1L of U2OS cells (human (endogenous in U2OS)) (UniProt P55060); test: co-IP; nuclear extract of U2OS cells; KPNA5, KPNB2 or CSE1L precipitated individually with antibodies to each transporter; endogenous CHRONO detected by Western blot
[4] = biological target: endogenous KPNB2 of U2OS cells (human (endogenous in U2OS)) (UniProt Q92973); test: as above
[5] = biological target: endogenous KPNA5 of U2OS cells (human (endogenous in U2OS)) (UniProt O15131); test: as above

binding [1]: binds
Molecule: Flag-HA tagged KPNA5 (from UniProt O15131 1-539)

binding [2]: binds
Molecule: Flag labeled BMAL1 (from UniProt O00327 1-626)

binding [3]: binds
binding [4]: binds
binding [5]: binds
B2: endogenous CHRONO of U2OS cells (protein, UniProt Q8N365 1-385)
chain: MDSPSSVSSYSSYSLSSSFPTSPVNSDFGFPSDSEREDKGAHGPRPDTVGQRGGSRPSPGPIRCRHRSKVSGNQHTPSHPKQRGSASPMAGSGAKRSRDGELETSLNTQGCTTEGDLLFAQKCKELQGFIPPLTDLLNGLKMGRFERGLSSFQQSVAMDRIQRIVGVLQKPQMGERYLGTLLQVEGMLKTWFPQIAAQKSSLGGGKHQLTKHFPSHHSDSAASSPASPMEKMDQTQLGHLALKPKQPWHLTQWPAMNLTWIHTTPICNPPLSSPGTISFSHGPLGTGTGIGVILFLQHGVQPFTHSAPTTPVPPTTASPVIPGEPMKLSGEGPRCYSLPVTLPSDWSYTLSPPSLPTLARKMTIGHREQQRSHPPVAADAHLLNL

binding [1]: binds
B3: Flag-HA tagged TNPO2 (protein, UniProt O14787 1-897)
chain: MDWQPDEQGLQQVLQLLKDSQSPNTATQRIVQDKLKQLNQFPDFNNYLIFVLTRLKSEDEPTRSLSGLILKNNVKAHYQSFPPPVADFIKQECLNNIGDASSLIRATIGILITTIASKGELQMWPELLPQLCNLLNSEDYNTCEGAFGALQKICEDSSELLDSDALNRPLNIMIPKFLQFFKHCSPKIRSHAIACVNQFIMDRAQALMDNIDTFIEHLFALAVDDDPEVRKNVCRALVMLLEVRIDRLIPHMHSIIQYMLQRTQDHDENVALEACEFWLTLAEQPICKEVLASHLVQLIPILVNGMKYSEIDIILLKGDVEEDEAVPDSEQDIKPRFHKSRTVTLPHEAERPDGSEDAEDDDDDDALSDWNLRKCSAAALDVLANVFREELLPHLLPLLKGLLFHPEWVVKESGILVLGAIAEGCMQGMVPYLPELIPHLIQCLSDKKALVRSIACWTLSRYAHWVVSQPPDMHLKPLMTELLKRILDGNKRVQEAACSAFATLEEEACTELVPYLSYILDTLVFAFGKYQHKNLLILYDAIGTLADSVGHHLNQPEYIQKLMPPLIQKWNELKDEDKDLFPLLECLSSVATALQSGFLPYCEPVYQRCVTLVQKTLAQAMMYTQHPEQYEAPDKDFMIVALDLLSGLAEGLGGHVEQLVARSNIMTLLFQCMQDSMPEVRQSSFALLGDLTKACFIHVKPCIAEFMPILGTNLNPEFISVCNNATWAIGEICMQMGAEMQPYVQMVLNNLVEIINRPNTPKTLLENTGRLTSPSAIPAITIGRLGYVCPQEVAPMLQQFIRPWCTSLRNIRDNEEKDSAFRGICMMIGVNPGGVVQDFIFFCDAVASWVSPKDDLRDMFYKILHGFKDQVGEDNWQQFSEQFPPLLKERLAAFYGV

The next lines start with the molecule.

Molecule: Flag-HA tagged KPNB2 (from UniProt Q92973 1-898)
binding [1]: binds

Molecule: Flag-HA tagged CSE1L (from UniProt P55060 1-971)
binding [1]: binds

B1: 5 × Myc-6 × His tagged CHRONO, transiently expressed from pcDNA3.1 (+) (protein, UniProt Q8N365 1-385)
chain: MDSPSSVSSYSSYSLSSSFPTSPVNSDFGFPSDSEREDKGAHGPRPDTVGQRGGSRPSPGPIRCRHRSKVSGNQHTPSHPKQRGSASPMAGSGAKRSRDGELETSLNTQGCTTEGDLLFAQKCKELQGFIPPLTDLLNGLKMGRFERGLSSFQQSVAMDRIQRIVGVLQKPQMGERYLGTLLQVEGMLKTWFPQIAAQKSSLGGGKHQLTKHFPSHHSDSAASSPASPMEKMDQTQLGHLALKPKQPWHLTQWPAMNLTWIHTTPICNPPLSSPGTISFSHGPLGTGTGIGVILFLQHGVQPFTHSAPTTPVPPTTASPVIPGEPMKLSGEGPRCYSLPVTLPSDWSYTLSPPSLPTLARKMTIGHREQQRSHPPVAADAHLLNL
binding (Flag labeled BMAL1): binds
binding (Flag-HA tagged KPNA5): binds
binding (Flag-HA tagged CSE1L): binds
binding (Flag-HA tagged KPNB2): binds

Source: paper PMC11599456
